Literature values as cited in patent US9464301B2, “Increased isoprene production using the archaeal lower mevalonate pathway” (Danisco US Inc., priority 2008, dated 2016).
For at least one compound, name, drawing or mass did not settle the structure.

Target: T1, MVK from the archaeon Methanococcus jannaschii (Methanocaldococcus jannaschii, UniProt Q58487)
T1 sequence (Q58487 1-312): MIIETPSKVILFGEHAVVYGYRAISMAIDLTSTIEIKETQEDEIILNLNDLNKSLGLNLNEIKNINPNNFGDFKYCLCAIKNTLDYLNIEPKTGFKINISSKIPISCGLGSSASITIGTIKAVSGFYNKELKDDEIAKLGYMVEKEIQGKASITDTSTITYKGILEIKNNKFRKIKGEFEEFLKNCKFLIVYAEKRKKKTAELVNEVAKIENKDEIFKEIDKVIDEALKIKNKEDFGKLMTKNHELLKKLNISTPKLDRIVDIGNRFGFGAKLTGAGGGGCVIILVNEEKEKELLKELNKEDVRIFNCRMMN
Conditions: Huang et al. 1999; cited from earlier work

CC(C)=CCC/C(C)=C/CC/C(C)=C/CO[P@@](=O)(O)OP(=O)(O)O (stereo in doubt) [FPP, farnesyl diphosphate]
Feedback inhibition of M. jannaschii MVK: feedback inhibited
